Data: US7547729B2, “1,3-diphenylprop-2-en-1-one derivative compounds, preparation method thereof and uses of same” (Genfit, priority 2004, dated 2009)
At least one compound was matched to its structure with a doubt left.

Tests used:
LDL = experiment: Protection against LDL oxidation by copper (conjugated diene formation); assay type: biochemical; settings: FIG. 5a; 10^−4M; no control value printed
Description: Unless otherwise indicated, the reagents were from Sigma (St Quentin, France). LDL were prepared according to the method described by Lebeau et al. (Lebeau, Furman et al. 2000).
The solutions of test compounds were prepared at 10^−2 M concentration in bicarbonate buffer (pH 9) and diluted in PBS to obtain final concentrations ranging from 0.1 to 100 μM
Prior to oxidation, EDTA was removed from the LDL preparation by dialysis. Oxidation then took place at 30° C. by adding 100 μl of 16.6 μM CuSO4 solution to 160 μL of LDL (125 μg protein/ml) and 20 μl of a test compound solution. The formation of dienes, the species under observation, was followed by measuring optical density at 232 nm in the samples treated with the compounds in the presence or absence of copper. Optical density at 232 nm was measured every 10 minutes for 8 hours in a thermostated spectrophotometer (Tecan Ultra 380). The analyses were performed in triplicate. The compounds were considered to have antioxidant activity when they induced a longer lag phase and reduced the rate of oxidation and the amount of dienes formed in comparison with the control sample.

PPARα = biological target: T1, PPARα (Homo sapiens, UniProt Q07869); experiment: PPARα/Gal4 transactivation system in COS-7 cells; assay type: cell-based; settings: 24 hours
T1 construct: expressed in transfected cells; host or cells: COS-7 cells
T1 sequence (Q07869 239-466 limits assumed): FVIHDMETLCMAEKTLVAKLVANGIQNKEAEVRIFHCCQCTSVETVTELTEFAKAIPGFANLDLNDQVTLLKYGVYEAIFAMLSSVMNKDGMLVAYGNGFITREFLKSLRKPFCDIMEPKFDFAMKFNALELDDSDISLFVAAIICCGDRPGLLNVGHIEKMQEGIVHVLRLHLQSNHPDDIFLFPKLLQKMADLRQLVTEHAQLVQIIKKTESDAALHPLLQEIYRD
Description: (§1) COS-7 cells were incubated with different concentrations of the inventive compounds for 24 hours. The results are expressed as the induction factor (ratio of luminescent signal obtained with the compound and that observed without the compound) after the different treatments.
(§2) PPAR activation was tested in vitro in RK13 epitheloid or COS-7 cell lines by measuring the transcriptional activity of chimeras composed of the DNA binding domain of the yeast gal4 transcription factor and the ligand binding domain of the different PPARs. These latter results were then confirmed in cell lines according to the following protocols:
(§3) RK13 cells were from ECACC (Porton Down, UK), COS-7 cells were from the ATCC (American Type Culture Collection) and were grown in DMEM medium supplemented with 10% (VN) fetal calf serum, 100 U/ml penicillin (Gibco, Paisley, UK) and 2 mM L-glutamine (Gibco, Paisley, UK). The culture medium was changed every two days. Cells were kept at 37° C. in a humidified 95% air/5% CO2 atmosphere.
(§4) The plasmids pG5TkpGL3, pRL-CMV, pGal4-hPPARα, pGal4-hPPARγ, pGal4-hPPARδ and pGal4-φ have been described by Raspe, Madsen et al. (1999). The pGal4-mPPARα, pGal4-hPPARγ and pGal4-hPPARδ constructs were obtained by cloning into the pGal4-φ vector of PCR-amplified DNA fragments corresponding to the DEF domains of the human PPARα, PPARγ and PPARδ nuclear receptors.
(§5) RK13 cells were seeded in 24-well culture dishes at 5×10^4 cells/well, COS-7 cells in 96-well culture dishes at 5×10^4 cells/well and transfected for 2 hours with the reporter plasmid pG5TkpGL3 (50 ng/well), the expression vectors pGal4-φ, pGal4-mPPARα, pGal4-hPPARα, pGal4-hPPARγ, pGal4-hPPARδ (100 ng/well) and the transfection efficiency control vector pRL-CMV (1 ng/well) according to the previously described protocol (Raspe, Madsen et al. 1999), then incubated for 36 hours with the test compounds. At the end of the experiment, the cells were lysed (Gibco, Paisley, UK) and luciferase activity was determined with a Dual-Luciferase™ Reporter Assay System kit (Promega, Madison, Wis., USA) for RK13 cells and Steady Glow Luciferase (Promega) for COS-7 cells according to the supplier's instructions as previously described. The protein content of the cell extracts was then measured with the Bio-Rad Protein Assay (Bio-Rad, Munich, Germany) as directed by the supplier.

PPARδ = biological target: T2, PPARδ (Homo sapiens, UniProt Q03181); experiment: PPARδ/Gal4 transactivation system in COS-7 cells; assay type: cell-based; settings: 24 hours
T2 construct: expressed in transfected cells; host or cells: COS-7 cells
T2 sequence (Q03181 211-439 limits assumed): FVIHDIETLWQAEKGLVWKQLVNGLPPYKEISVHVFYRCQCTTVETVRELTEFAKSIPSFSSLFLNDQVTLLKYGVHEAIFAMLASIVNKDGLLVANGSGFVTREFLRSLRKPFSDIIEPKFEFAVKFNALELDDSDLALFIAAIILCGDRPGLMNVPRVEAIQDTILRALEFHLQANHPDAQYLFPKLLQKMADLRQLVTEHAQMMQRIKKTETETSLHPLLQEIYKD
Description: as §1, §2, §3, §4, §5

`CSc1ccc(C(=O)/C=C/c2ccc(OC(C)(C)C(=O)O)c(F)c2)cc1` [compound 29, 1-(4-Methylthiophenyl)-3-(4-carboxydimethylmethyloxy-3-fluorophenyl)prop-2-en-1-one] was tested, and the “kinetics of LDL oxidation (lag phase)” value (LDL) was 54.9 min, the Induction factor (PPARα; 0.001 μM) was 1.09 and the Induction factor (PPARα; 0.003 μM) was 1.20. It also gave an Induction factor (PPARα; 0.01 μM) of 1.49, an Induction factor (PPARα; 0.03 μM) of 2.85 and an Induction factor (PPARα; 0.1 μM) of 6.93. The Induction factor (PPARα; 0.3 μM) was 12.51, the Induction factor (PPARα; 1 μM) was 15.56 and the Induction factor (PPARα; 3 μM) was 15.75. It also gave an Induction factor (PPARδ; 0.001 μM) of 1.03, an Induction factor (PPARδ; 0.003 μM) of 1.07 and an Induction factor (PPARδ; 0.01 μM) of 1.26. For the same compound, the Induction factor (PPARδ; 0.03 μM) was 1.63, the Induction factor (PPARδ; 0.1 μM) was 4.07 and the Induction factor (PPARδ; 0.3 μM) was 11.61. It also gave an Induction factor (PPARδ; 1 μM) of 33.78, an Induction factor (PPARδ; 3 μM) of 60.81 and an Induction factor (PPARδ; 10 μM) of 87.56.
